± gives the standard deviation of the averaged measurements. This is a selection; strong and weak results do not stand in their true shares.
Compound: Nc1ncnc2c1ncn2[C@@H]1O[C@H](COP(=O)(O)OP(=O)(O)NP(=O)(O)O)[C@@H](O)[C@H]1O [adenylyl imidodiphosphate]
Test: NP40-soluble protein abundance relative to vehicle (solubility fold change) (ratio); higher = more soluble protein in presence of AMP-PNP
Method in brief: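 Data come from three independent experiments in which Dounce-homogenised Jurkat crude lysate was treated at eight concentrations from 0.1 to 10 mM. Treatment ran 10 min at room temperature and then 3 min at 37 °C, after which 0.8% NP40 and benzonase were added for 60 min at 4 °C before ultracentrifugation. The supernatant underwent TMT labelling and LC-MS/MS, and vsn-normalised intensities were expressed as fold change against the detergent-processed vehicle in each replicate.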

Amino acid sequences for entries named in this document (tags omitted). A change or cut given only in a name is not applied to a line headed by its entry.
UniProt Q92945: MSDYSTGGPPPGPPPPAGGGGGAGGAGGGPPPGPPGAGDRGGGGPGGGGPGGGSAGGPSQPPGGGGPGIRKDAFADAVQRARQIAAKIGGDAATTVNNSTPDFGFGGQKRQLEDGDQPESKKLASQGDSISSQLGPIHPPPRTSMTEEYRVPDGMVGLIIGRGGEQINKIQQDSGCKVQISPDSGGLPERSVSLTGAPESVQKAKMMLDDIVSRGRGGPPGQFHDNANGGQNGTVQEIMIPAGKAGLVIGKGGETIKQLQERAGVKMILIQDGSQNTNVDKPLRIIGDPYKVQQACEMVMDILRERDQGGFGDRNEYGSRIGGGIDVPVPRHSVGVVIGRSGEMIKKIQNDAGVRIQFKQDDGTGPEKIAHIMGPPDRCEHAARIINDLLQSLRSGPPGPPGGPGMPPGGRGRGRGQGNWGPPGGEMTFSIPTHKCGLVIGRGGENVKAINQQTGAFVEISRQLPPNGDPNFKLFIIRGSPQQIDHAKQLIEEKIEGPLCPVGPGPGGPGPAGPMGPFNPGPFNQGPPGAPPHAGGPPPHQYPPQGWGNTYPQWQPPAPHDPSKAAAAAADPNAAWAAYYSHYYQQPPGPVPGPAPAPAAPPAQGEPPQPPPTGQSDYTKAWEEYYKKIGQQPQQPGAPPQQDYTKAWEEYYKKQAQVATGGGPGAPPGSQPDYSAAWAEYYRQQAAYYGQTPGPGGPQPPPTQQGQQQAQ
UniProt Q8WU79: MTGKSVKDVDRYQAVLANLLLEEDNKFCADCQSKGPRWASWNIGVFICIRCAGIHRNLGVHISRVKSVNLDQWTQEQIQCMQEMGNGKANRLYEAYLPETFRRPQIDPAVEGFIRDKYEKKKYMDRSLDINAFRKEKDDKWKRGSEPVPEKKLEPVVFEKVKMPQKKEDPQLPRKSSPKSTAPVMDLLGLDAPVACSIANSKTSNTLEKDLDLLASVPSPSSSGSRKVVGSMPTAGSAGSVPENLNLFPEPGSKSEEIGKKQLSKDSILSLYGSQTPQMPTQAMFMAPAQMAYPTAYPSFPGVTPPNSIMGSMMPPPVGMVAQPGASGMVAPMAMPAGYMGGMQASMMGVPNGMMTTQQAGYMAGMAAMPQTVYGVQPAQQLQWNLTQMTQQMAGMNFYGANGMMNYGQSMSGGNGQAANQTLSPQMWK
UniProt Q8TBF4: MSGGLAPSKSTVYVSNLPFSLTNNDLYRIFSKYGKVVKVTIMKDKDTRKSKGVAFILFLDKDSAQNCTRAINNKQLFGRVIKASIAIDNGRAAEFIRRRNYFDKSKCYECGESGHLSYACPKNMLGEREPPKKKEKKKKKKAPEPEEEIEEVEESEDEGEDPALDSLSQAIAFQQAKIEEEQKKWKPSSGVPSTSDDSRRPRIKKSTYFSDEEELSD
UniProt Q92905, whole entry, looked up: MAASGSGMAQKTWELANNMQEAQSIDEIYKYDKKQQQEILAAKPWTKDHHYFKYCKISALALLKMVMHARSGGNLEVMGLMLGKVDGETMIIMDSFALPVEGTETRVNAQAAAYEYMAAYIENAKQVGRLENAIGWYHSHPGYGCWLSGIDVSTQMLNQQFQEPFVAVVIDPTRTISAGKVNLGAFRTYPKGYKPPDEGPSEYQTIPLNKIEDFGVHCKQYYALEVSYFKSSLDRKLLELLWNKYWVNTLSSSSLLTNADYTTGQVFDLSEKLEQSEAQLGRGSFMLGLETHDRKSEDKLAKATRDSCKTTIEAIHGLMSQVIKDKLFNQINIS
UniProt Q8TBN0: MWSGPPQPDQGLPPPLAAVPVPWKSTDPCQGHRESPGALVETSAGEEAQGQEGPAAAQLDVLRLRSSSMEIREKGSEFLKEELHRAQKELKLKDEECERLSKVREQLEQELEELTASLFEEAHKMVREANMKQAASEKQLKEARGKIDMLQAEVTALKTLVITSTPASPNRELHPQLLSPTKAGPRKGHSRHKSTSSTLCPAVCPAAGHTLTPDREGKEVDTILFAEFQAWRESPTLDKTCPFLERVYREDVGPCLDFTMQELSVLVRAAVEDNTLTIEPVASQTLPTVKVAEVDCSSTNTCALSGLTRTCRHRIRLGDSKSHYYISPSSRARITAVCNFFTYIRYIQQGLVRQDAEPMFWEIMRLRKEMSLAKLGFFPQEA
UniProt Q8WUW1: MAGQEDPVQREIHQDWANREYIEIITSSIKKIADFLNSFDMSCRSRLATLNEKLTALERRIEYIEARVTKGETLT
UniProt Q8TEV9: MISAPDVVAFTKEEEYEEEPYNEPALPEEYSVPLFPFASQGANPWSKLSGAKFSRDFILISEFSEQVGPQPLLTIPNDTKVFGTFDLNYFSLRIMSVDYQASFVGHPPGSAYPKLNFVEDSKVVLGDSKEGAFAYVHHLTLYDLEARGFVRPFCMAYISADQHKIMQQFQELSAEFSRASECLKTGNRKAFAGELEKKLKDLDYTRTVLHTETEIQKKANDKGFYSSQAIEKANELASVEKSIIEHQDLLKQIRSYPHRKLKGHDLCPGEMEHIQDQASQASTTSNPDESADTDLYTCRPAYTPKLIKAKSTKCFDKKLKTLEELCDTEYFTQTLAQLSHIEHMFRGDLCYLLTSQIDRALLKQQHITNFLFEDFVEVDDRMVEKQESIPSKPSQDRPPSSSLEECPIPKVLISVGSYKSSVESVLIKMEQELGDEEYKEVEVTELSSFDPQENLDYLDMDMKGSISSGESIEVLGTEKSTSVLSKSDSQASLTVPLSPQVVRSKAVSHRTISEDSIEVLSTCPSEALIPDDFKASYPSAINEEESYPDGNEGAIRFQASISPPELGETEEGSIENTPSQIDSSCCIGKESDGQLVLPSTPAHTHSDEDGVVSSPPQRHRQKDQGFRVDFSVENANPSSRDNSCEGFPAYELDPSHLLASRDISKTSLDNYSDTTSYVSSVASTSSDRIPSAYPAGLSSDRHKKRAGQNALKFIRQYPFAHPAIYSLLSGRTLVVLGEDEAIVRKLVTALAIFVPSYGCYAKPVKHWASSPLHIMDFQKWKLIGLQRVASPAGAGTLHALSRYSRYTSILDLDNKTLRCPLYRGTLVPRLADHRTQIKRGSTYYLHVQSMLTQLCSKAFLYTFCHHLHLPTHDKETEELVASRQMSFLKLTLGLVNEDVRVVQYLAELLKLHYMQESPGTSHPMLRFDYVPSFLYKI
UniProt Q8TEQ8: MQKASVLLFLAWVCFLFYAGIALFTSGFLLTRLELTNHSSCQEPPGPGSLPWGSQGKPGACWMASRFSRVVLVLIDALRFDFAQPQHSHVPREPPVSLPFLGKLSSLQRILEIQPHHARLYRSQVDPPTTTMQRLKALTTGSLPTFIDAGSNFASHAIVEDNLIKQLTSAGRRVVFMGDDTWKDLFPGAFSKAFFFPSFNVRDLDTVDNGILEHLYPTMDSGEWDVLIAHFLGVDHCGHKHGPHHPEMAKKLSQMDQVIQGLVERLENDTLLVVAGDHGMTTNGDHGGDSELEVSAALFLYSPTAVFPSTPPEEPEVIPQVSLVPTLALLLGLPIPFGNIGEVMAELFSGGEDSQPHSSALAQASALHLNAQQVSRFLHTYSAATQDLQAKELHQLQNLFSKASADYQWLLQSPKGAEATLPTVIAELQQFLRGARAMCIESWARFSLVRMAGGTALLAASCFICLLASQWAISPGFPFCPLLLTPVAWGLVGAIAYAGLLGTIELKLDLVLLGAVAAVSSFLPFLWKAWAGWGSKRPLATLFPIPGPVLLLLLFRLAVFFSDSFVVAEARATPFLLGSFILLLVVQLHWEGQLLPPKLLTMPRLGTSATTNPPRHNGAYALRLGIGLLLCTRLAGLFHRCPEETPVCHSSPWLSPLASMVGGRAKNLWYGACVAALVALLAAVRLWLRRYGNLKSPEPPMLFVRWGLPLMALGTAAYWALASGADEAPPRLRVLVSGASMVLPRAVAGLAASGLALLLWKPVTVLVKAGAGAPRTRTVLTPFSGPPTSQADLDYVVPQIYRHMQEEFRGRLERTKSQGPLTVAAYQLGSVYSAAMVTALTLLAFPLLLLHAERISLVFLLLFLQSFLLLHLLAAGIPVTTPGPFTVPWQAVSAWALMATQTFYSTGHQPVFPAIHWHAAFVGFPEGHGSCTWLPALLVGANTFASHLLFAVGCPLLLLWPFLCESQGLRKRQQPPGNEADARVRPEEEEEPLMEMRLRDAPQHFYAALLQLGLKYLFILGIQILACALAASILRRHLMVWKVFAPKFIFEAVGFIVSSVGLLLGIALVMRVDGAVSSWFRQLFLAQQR
UniProt Q8NCW5: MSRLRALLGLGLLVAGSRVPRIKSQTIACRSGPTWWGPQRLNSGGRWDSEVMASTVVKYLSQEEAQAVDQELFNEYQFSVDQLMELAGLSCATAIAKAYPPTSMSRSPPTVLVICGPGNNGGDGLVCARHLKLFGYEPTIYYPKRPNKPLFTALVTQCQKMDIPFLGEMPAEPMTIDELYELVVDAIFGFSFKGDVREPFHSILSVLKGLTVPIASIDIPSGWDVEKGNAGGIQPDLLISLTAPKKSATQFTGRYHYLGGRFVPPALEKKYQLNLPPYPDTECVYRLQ
UniProt Q8ND56: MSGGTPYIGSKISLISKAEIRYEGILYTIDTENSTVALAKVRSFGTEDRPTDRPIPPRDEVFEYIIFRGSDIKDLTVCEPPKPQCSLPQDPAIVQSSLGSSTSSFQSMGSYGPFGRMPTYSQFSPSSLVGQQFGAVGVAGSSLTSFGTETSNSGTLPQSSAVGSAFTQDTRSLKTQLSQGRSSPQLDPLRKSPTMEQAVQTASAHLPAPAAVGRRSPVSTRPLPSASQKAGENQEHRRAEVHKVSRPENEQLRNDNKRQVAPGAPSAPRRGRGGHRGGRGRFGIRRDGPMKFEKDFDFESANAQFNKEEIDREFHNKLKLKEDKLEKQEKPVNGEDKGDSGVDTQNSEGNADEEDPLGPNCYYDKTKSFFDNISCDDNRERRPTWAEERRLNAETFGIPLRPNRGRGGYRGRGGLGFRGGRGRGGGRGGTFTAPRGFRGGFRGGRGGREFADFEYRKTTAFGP
UniProt Q8WZA0: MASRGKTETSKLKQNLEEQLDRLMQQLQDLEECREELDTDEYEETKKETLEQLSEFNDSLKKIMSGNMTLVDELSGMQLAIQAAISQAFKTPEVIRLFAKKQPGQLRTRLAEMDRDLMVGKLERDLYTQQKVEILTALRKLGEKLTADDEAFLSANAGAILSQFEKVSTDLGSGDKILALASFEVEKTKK
UniProt Q8NE01: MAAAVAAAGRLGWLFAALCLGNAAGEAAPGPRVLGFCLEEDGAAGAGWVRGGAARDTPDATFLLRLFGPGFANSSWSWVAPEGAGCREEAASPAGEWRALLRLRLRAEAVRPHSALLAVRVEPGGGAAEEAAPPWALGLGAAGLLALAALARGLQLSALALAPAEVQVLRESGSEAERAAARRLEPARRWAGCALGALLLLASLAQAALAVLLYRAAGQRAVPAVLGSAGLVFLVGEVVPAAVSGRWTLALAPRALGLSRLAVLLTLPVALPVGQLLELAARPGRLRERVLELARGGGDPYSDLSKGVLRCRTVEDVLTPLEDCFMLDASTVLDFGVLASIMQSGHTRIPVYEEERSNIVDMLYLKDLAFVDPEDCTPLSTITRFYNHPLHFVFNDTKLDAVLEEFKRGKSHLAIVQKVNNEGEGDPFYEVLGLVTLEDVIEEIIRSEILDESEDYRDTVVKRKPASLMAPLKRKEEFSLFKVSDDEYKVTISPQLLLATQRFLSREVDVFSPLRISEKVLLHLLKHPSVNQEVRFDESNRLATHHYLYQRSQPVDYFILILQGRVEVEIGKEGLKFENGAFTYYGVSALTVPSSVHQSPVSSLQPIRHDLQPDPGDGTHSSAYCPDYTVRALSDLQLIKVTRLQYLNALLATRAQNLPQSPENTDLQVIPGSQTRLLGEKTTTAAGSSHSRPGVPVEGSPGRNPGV
UniProt Q8TAA3: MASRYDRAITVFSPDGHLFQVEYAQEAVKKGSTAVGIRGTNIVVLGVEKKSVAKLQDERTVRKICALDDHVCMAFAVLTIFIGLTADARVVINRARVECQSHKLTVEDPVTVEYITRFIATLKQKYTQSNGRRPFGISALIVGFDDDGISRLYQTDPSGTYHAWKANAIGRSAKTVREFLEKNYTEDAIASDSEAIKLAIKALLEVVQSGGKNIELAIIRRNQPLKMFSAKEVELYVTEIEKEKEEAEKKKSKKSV
UniProt Q8NDZ4: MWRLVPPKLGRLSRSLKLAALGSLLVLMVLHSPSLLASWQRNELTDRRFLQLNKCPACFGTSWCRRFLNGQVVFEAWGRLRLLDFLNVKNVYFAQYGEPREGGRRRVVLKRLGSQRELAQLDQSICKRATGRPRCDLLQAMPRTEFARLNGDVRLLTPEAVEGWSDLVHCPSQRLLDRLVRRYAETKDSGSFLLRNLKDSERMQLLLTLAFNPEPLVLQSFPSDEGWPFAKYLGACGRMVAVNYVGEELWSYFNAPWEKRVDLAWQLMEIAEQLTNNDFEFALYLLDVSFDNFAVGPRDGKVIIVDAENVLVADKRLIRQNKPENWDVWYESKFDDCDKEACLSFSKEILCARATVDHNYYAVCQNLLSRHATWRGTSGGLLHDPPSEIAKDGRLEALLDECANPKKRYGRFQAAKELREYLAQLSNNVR

Target	NP40-soluble protein abundance (concentration: 1mM)	NP40-soluble protein abundance (concentration: 2mM)	NP40-soluble protein abundance (concentration: 4mM)	NP40-soluble protein abundance (concentration: 6mM)	NP40-soluble protein abundance (concentration: 8mM)	NP40-soluble protein abundance (concentration: 10mM)
TOR1AIP2 (UniProt Q8NFQ8)	0.996 ± 0.031	1.04 ± 0.068	0.956 ± 0.023	0.984 ± 0.026	0.945 ± 0.019	0.985 ± 0.029
KHSRP (UniProt Q92945)	1.022 ± 0.0033	1.08 ± 0.071	1.01 ± 0.033	0.9997 ± 0.0068	0.976 ± 0.016	0.994 ± 0.046
UniProt Q8WU79 and related entries	1.03 ± 0.02	1.04 ± 0.029	0.984 ± 0.029	1 ± 0.027	0.964 ± 0.029	0.969 ± 0.055
GTF3C2 (UniProt Q8WUA4)	0.965 ± 0.025	0.993 ± 0.083	0.964 ± 0.094	1 ± 0.061	0.982 ± 0.052	1.03 ± 0.059
UniProt Q8NHV4 and related entries	1.01 ± 0.018	1.024 ± 0.0074	1.02 ± 0.034	1.02 ± 0.029	1.01 ± 0.027	1.05 ± 0.015
UniProt Q8WVK7	0.96 ± 0.026	1.03 ± 0.022	0.952 ± 0.017	0.992 ± 0.024	0.9823 ± 0.0087	0.975 ± 0.01
CHD6 (UniProt Q8TD26)	1.03 ± 0.044	1.02 ± 0.034	1.03 ± 0.065	1 ± 0.031	0.973 ± 0.054	0.989 ± 0.031
ANKS1A (UniProt Q92625)	1.02 ± 0.032	1.04 ± 0.057	1.03 ± 0.052	1.02 ± 0.054	0.985 ± 0.062	0.989 ± 0.06
ZCRB1 (UniProt Q8TBF4)	1.0199 ± 0.00057	1.05 ± 0.049	1.02 ± 0.018	1.04 ± 0.033	0.99738 ± 0.00012	1.068 ± 0.0043
UBXN4 (UniProt Q92575)	1 ± 0.014	1.03 ± 0.059	0.997 ± 0.037	0.991 ± 0.027	0.963 ± 0.025	0.992 ± 0.049
COPS5 (UniProt Q92905)	0.993 ± 0.044	0.974 ± 0.042	0.982 ± 0.053	0.9789 ± 0.007	1.01 ± 0.082	0.958 ± 0.056
UniProt Q8TBN0 and related entries	1.01 ± 0.028	1 ± 0.031	1.01 ± 0.021	1.01 ± 0.041	1 ± 0.026	1 ± 0.051
UniProt Q8WVE0	0.9979 ± 0.0064	0.992 ± 0.023	0.998 ± 0.011	1 ± 0.015	1.04 ± 0.017	0.995 ± 0.012
MYST3 (UniProt Q92794)	0.996 ± 0.018	1.04 ± 0.021	1.01 ± 0.034	1.01 ± 0.013	1.02 ± 0.018	1.04 ± 0.031
UniProt Q92600 and related entries	0.963 ± 0.026	1.02 ± 0.057	1.03 ± 0.06	1.11 ± 0.053	1.14 ± 0.05	1.06 ± 0.086
UniProt Q8WUW1 and related entries	0.925 ± 0.049	0.937 ± 0.068	0.89 ± 0.043	0.8947 ± 0.0013	0.905 ± 0.052	0.892 ± 0.035
CCNY (UniProt Q8ND76)	0.9751 ± 0.0046	0.989 ± 0.028	1.03 ± 0.049	0.973 ± 0.025	0.993 ± 0.011	0.965 ± 0.017
UniProt Q8NHH9 and related entries	1.02 ± 0.043	1 ± 0.046	1.01 ± 0.022	0.96 ± 0.017	0.964 ± 0.011	0.96 ± 0.052
LEMD2 (UniProt Q8NC56)	1.083 ± 0.0047	1.15 ± 0.07	1.15 ± 0.05	1.19 ± 0.072	1.23 ± 0.071	1.27 ± 0.052
SLC44A1 (UniProt Q8WWI5)	1.01 ± 0.022	1.02 ± 0.043	1.02 ± 0.048	0.9897 ± 0.0045	1.01 ± 0.021	1.02 ± 0.029

Target	NP40-soluble protein abundance (concentration: 1mM)	NP40-soluble protein abundance (concentration: 2mM)	NP40-soluble protein abundance (concentration: 4mM)	NP40-soluble protein abundance (concentration: 6mM)	NP40-soluble protein abundance (concentration: 8mM)	NP40-soluble protein abundance (concentration: 10mM)
UniProt Q8TEV9 and related entries	1.01 ± 0.023	1.01 ± 0.046	1.01 ± 0.039	0.987 ± 0.013	0.942 ± 0.019	0.967 ± 0.017
WDR48 (UniProt Q8TAF3)	1.04 ± 0.0098	0.973 ± 0.12	1.05 ± 0.025	1.06 ± 0.021	1.089 ± 0.0095	1.08 ± 0.035
UniProt Q92614 and related entries	1.02 ± 0.025	1.05 ± 0.026	1.01 ± 0.014	0.984 ± 0.045	0.955 ± 0.026	0.971 ± 0.042
UniProt Q8ND82 and related entries	1.04 ± 0.028	1.07 ± 0.056	1.08 ± 0.026	1.06 ± 0.008	1.07 ± 0.06	1.14 ± 0.014
KBTBD7 (UniProt Q8WVZ9)	0.977 ± 0.014	0.9633 ± 0.004	0.959 ± 0.025	0.987 ± 0.01	1.03 ± 0.018	0.988 ± 0.03
NEK7 (UniProt Q8TDX7)	1.01 ± 0.027	0.948 ± 0.051	1 ± 0.012	1.01 ± 0.056	1.06 ± 0.039	1.01 ± 0.02
UniProt Q8WVD3 and related entries	0.98104 ± 7.6e-05	1.03 ± 0.034	1.01 ± 0.035	1.03 ± 0.035	1.011 ± 0.0067	1.02 ± 0.053
UniProt Q8TEW0-8|Q5VWU8 and related entries	0.999 ± 0.029	1.04 ± 0.024	1.042 ± 0.0057	1.05 ± 0.04	1.03 ± 0.015	1.115 ± 0.011
UniProt Q8NFC6	1.04 ± 0.046	1.09 ± 0.045	1.04 ± 0.057	1 ± 0.032	0.978 ± 0.046	0.992 ± 0.038
UniProt Q92574 and related entries	1 ± 0.031	1.04 ± 0.061	0.986 ± 0.022	0.966 ± 0.029	0.937 ± 0.03	0.97 ± 0.04
UniProt Q8TEQ8 and related entries	0.996 ± 0.044	0.987 ± 0.021	0.99 ± 0.024	0.967 ± 0.021	0.981 ± 0.031	0.972 ± 0.044
UniProt Q8WUF8 and related entries	1.01 ± 0.016	1.044 ± 0.0074	1.037 ± 0.0037	1.04 ± 0.056	1.02 ± 0.045	1.02 ± 0.031
UniProt Q8NCW5	0.989 ± 0.016	1.049 ± 0.0083	1.04 ± 0.037	0.996 ± 0.026	0.974 ± 0.034	0.977 ± 0.05
UniProt Q92878 and related entries	1.05 ± 0.035	1.07 ± 0.012	1.06 ± 0.037	1.03 ± 0.073	1.02 ± 0.061	1.05 ± 0.062
PIGK (UniProt Q92643)	1.03 ± 0.034	0.951 ± 0.085	0.98 ± 0.021	0.953 ± 0.026	0.977 ± 0.032	0.972 ± 0.038
UBASH3B (UniProt Q8TF42)	0.969 ± 0.05	0.908 ± 0.071	0.959 ± 0.032	0.986 ± 0.064	0.997 ± 0.035	0.959 ± 0.012
UniProt Q8WWK9 and related entries	0.999 ± 0.026	1.07 ± 0.11	1.06 ± 0.048	1.08 ± 0.053	1.09 ± 0.074	1.17 ± 0.12
UniProt Q92698 and related entries	0.976 ± 0.048	0.995 ± 0.031	0.983 ± 0.054	0.992 ± 0.053	0.977 ± 0.044	0.988 ± 0.024
LSM14A (UniProt Q8ND56)	1.01 ± 0.012	1.09 ± 0.08	1.04 ± 0.018	1.05 ± 0.016	1.04 ± 0.024	1.05 ± 0.033
CHAC2 (UniProt Q8WUX2)	1 ± 0.028	0.957 ± 0.02	0.992 ± 0.023	0.963 ± 0.022	1.01 ± 0.023	0.96 ± 0.026

Target	NP40-soluble protein abundance (concentration: 1mM)	NP40-soluble protein abundance (concentration: 2mM)	NP40-soluble protein abundance (concentration: 4mM)	NP40-soluble protein abundance (concentration: 6mM)	NP40-soluble protein abundance (concentration: 8mM)	NP40-soluble protein abundance (concentration: 10mM)
ZNF740 (UniProt Q8NDX6)	0.985 ± 0.021	1.01 ± 0.027	1.03 ± 0.014	1.08 ± 0.07	1.1 ± 0.078	1.1 ± 0.057
UniProt Q8WZA0 and related entries	0.969 ± 0.052	0.957 ± 0.0098	0.928 ± 0.059	0.912 ± 0.044	0.921 ± 0.034	0.859 ± 0.054
UniProt Q8NG08 and related entries	0.995 ± 0.021	1.01 ± 0.03	1 ± 0.019	1.01 ± 0.043	1.02 ± 0.028	1.03 ± 0.019
UniProt Q92609 and related entries	1.022 ± 0.01	1.06 ± 0.025	1.016 ± 0.01	0.972 ± 0.055	0.945 ± 0.03	0.976 ± 0.043
CNNM3 (UniProt Q8NE01)	0.974 ± 0.029	0.894 ± 0.087	0.954 ± 0.028	0.98 ± 0.047	0.967 ± 0.011	0.936 ± 0.025
UniProt Q92688 and related entries	1.04 ± 0.075	1.05 ± 0.053	1.02 ± 0.07	1.02 ± 0.016	1.01 ± 0.037	1 ± 0.044
UniProt Q8TAA3 and related entries	0.935 ± 0.044	0.934 ± 0.021	0.982 ± 0.056	1.04 ± 0.049	1.04 ± 0.06	1.05 ± 0.1
UniProt Q8TB61 and related entries	0.968 ± 0.041	0.969 ± 0.045	0.965 ± 0.045	0.953 ± 0.034	0.951 ± 0.042	0.989 ± 0.019
UniProt Q8NFD5 and related entries	0.983 ± 0.022	1.02 ± 0.04	1.02 ± 0.031	0.989 ± 0.02	0.964 ± 0.018	1.01 ± 0.074
NUDCD2 (UniProt Q8WVJ2)	1.013 ± 0.0085	1.03 ± 0.082	0.989 ± 0.041	1 ± 0.029	0.956 ± 0.026	0.95 ± 0.037
UniProt Q8NDZ4 and related entries	1 ± 0.023	1 ± 0.035	1.01 ± 0.036	1.004 ± 0.0046	1.03 ± 0.015	1.04 ± 0.032
DNAJC9 (UniProt Q8WXX5)	1.09 ± 0.043	1.14 ± 0.038	1.24 ± 0.032	1.24 ± 0.099	1.31 ± 0.11	1.29 ± 0.072
KIF18A (UniProt Q8NI77)	1.02 ± 0.06	1.03 ± 0.084	1.03 ± 0.061	1.04 ± 0.013	1.02 ± 0.024	1.05 ± 0.019
UniProt Q92834 and related entries	0.987 ± 0.017	1.01 ± 0.047	1 ± 0.012	0.9855 ± 0.0088	0.986 ± 0.011	0.986 ± 0.019
NUP205 (UniProt Q92621)	0.996 ± 0.033	0.959 ± 0.057	0.99 ± 0.019	0.943 ± 0.04	1 ± 0.036	1.01 ± 0.051
UniProt Q8WXE1 and related entries	1.01 ± 0.038	1.04 ± 0.018	0.9845 ± 0.0052	0.983 ± 0.035	0.979 ± 0.065	0.997 ± 0.039
UniProt Q8NEZ2 and related entries	0.99 ± 0.026	1.02 ± 0.061	0.964 ± 0.024	0.952 ± 0.02	0.929 ± 0.025	0.942 ± 0.03
UniProt Q8TEX9 and related entries	1.01 ± 0.026	0.974 ± 0.059	0.99 ± 0.017	0.9956 ± 0.0059	1.007 ± 0.0054	0.981 ± 0.025
PI4K2B (UniProt Q8TCG2)	0.991 ± 0.021	0.978 ± 0.012	0.971 ± 0.034	1.001 ± 0.0042	0.996 ± 0.038	0.987 ± 0.015
DPF2 (UniProt Q92785)	0.961 ± 0.071	0.98 ± 0.032	0.959 ± 0.078	0.961 ± 0.095	0.925 ± 0.066	0.936 ± 0.079

Copied from the list:
Value of UniProt Q8NFD5 and related entries under NP40-soluble protein abundance (concentration: 10mM): 1.01 ± 0.074
Value of UniProt Q8WUW1 and related entries under NP40-soluble protein abundance (concentration: 1mM): 0.925 ± 0.049
Value of UniProt Q8WUF8 and related entries under NP40-soluble protein abundance (concentration: 1mM): 1.01 ± 0.016
Value of MYST3 (UniProt Q92794) under NP40-soluble protein abundance (concentration: 4mM): 1.01 ± 0.034
Value of UBXN4 (UniProt Q92575) under NP40-soluble protein abundance (concentration: 10mM): 0.992 ± 0.049

Reference: the supplement of paper PMC6411743
